Results: PubChem BioAssay AID1439 (NMMLSC, 2008)
The whole screen tested about 220,000 compounds, of which about 770 (0.35%) were called active. Inconclusive means that the source gave no clear call. Such entries were picked first, then a sample of the others. Rule as the data show it: active = binding response below about 49% or above about 150%; inconclusive = no clear call, values can overlap the other calls; inactive = in between.

Chains of the proteins cited; added tags and fusions are not shown.
UniProt P09471, whole entry, looked up: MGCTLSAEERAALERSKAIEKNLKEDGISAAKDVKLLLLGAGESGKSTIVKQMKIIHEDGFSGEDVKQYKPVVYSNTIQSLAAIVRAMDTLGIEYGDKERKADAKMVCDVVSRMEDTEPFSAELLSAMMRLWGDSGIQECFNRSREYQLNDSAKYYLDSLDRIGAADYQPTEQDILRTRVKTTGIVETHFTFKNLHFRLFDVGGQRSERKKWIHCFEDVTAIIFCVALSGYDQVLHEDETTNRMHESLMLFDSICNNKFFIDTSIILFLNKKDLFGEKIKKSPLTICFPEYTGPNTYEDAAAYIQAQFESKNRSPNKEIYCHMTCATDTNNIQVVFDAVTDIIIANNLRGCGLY

What follows are compounds tested against Guanine nucleotide-binding protein G(o) subunit alpha (Homo sapiens) (UniProt P09471) (assay: RGS7-Galphao binding modulators, primary screen, biochemical, multiplexed bead flow cytometry (AID 1439;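 also: fluorescent Galphao held in activated GDP-AlF4 state binding bead-coupled RGS7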)). Conditions: at 10 µM, actives lie on both sides.

Structure (SMILES)	binding response (% of control)
Cc1ccc(/C=N/N=C2/NC(=O)CS2)o1	inactive: 97.5%
CCOC(=O)Cc1csc(NC(=O)Cc2ccc(Cl)cc2)n1	inconclusive: 108%
NC(=O)c1c(NC(=O)Cn2nc(C(=O)O)c3ccccc3c2=O)sc2c1CCC2	inconclusive: 10.8%
O=C(CCCOc1ccccc1)Nc1ccc(Cl)cn1	inconclusive: 116%
Cc1cc(C)c(O)c(-c2cc(C(=O)Nc3cccnc3)[nH]n2)c1	inconclusive: 116%
CCN(C(=O)CSc1ccc2ccccc2n1)C1CCS(=O)(=O)C1 (stereo unspecified)	inactive: 103%
Cn1c(=O)c2c(nc(NCCCO)n2CCc2ccccc2)n(C)c1=O	inactive: 105%
Cc1cc(=O)[nH]c(NN=C2C3CC4CC(C3)CC2C4)n1	inconclusive: 148%
CC(=O)N1CC(=O)N=C1SCC(=O)Nc1nc(C)c(-c2ccccc2)s1	inconclusive: 92.4%
CN(C)c1ccc2nsnc2c1[N+](=O)[O-]	inconclusive: -202%
CC(C)=C1SC(N2CCN(c3ccc(C)c(Cl)c3)CC2)=NC1=O	inconclusive: 77.1%
CCOC(=O)c1c(N)c2cc([N+](=O)[O-])cnc2n1C	inconclusive: 108%
Cc1ccccc1CNC(=O)c1ccccc1	inactive: 101%
COC(=O)c1ccc(/C=N/OCC(=O)NCc2ccc(F)cc2)cc1	inconclusive: 117%
Cc1ccc(OCCNS(=O)(=O)c2cccs2)cc1	active: 154% [activator]
O=C(c1ccc(Cl)cc1)N(Cc1ccccc1F)N1C(=O)CCCC1=O	inconclusive: 93.1%
Cc1ccc(C=C2C(Cl)=C(Cl)C(Cl)=C2Cl)cc1	inconclusive: 99.2%
CC(C(=O)Nc1ccc2c(c1)OCCO2)N(C)Cc1c(F)cccc1Cl (stereo unspecified)	inactive: 111%
Clc1cccc(Cl)c1/C=N/Nc1c(Cl)cncc1Cl	inconclusive: 95.7%
Cc1ccc(C)c(NC(=O)C(c2ccccc2)N2CCOCC2)c1 (stereo unspecified)	inactive: 99.8%
CC(C)[C@H](NC(=O)NCCC1=CCCCC1)C(=O)O	inconclusive: 77.6%
CCC(=O)NC(c1ccc(C)cc1)c1cc([N+](=O)[O-])c2cccnc2c1O (stereo unspecified)	inactive: 71.9%
CC(C)c1ccc(/C=N/NC(=O)c2cc(-c3cccc([N+](=O)[O-])c3)n[nH]2)cc1	inconclusive: 74%

Structure (SMILES)	binding response (% of control)
Cc1nc(NC(=O)CSc2nnc(N)s2)c(Cl)cc1Cl	inconclusive: 103%
CCc1ccc(OCC(=O)N/N=C(\C)c2ccc(O)cc2O)cc1	inconclusive: 89.1%
COc1ccc(-c2cnnn2-c2ccc(NC(=O)c3ccc(S(=O)(=O)N4CCCCC4)cc3)cc2)cc1	active: 21.3%
COc1ccc(CNC(=O)C(C)Sc2ccc(C)cc2)cc1 (stereo unspecified)	inconclusive: 103%
O=C(NC1CCCc2ccccc21)C12CC3CC(CC(O)(C3)C1)C2 (stereo unspecified)	inactive: 95.4%
N#CC1(c2ccccc2)CCC(=O)N1c1ccccc1 (stereo unspecified)	inconclusive: 9.26%
N#CCOC(=O)C1CSC2(c3ccc(Br)cc3)CCC(=O)N12 (stereo unspecified)	inactive: 103%
CC(C)Cn1c(N)c(C(=O)COC(=O)CCc2nc3ccccc3s2)c(=O)n(C)c1=O	inactive: 92.9%
CCC(=O)c1ccc(SC(=O)N(C)C)cc1O	inconclusive: 110%
Cc1cn(Cc2ccccc2Cn2cc(C)c(=O)[nH]c2=O)c(=O)[nH]c1=O	inconclusive: 73.4%
Cc1cccc(N(CC(=O)NC2CCCCC2)C(=O)Cn2nnc(-c3ccc(C)o3)n2)c1	inconclusive: 91.1%
COc1ccccc1NC(=O)c1c(NC(=O)CCC(=O)O)sc2c1CCCCC2	inconclusive: 133%
CCN(Cc1cc2ccccc2[nH]c1=O)C(=O)c1cccc([N+](=O)[O-])c1	inconclusive: 181%
O=C(N/N=C/c1c(O)n(Cc2ccco2)c(=O)[nH]c1=O)c1ccccc1	inconclusive: 96.7%
CC(C)c1ccc(Nc2c([N+](=O)[O-])c(=O)n(C)c3ccccc23)cc1	inconclusive: 110%
CC(=O)c1ccc(-n2ccnc2)cc1	inconclusive: -43.6%
S=C1CCC(c2ccc(Cl)cc2)=NN1c1ccccc1	inconclusive: 79.8%
COC(=O)C1C(O)=C(C=Nc2cccc3ccccc23)C(=O)CC1(C)C (stereo unspecified)	inconclusive: 111%
COc1cc(/C=N/NC(=O)c2cccc([N+](=O)[O-])c2)ccc1O	inconclusive: 98%
Cc1ccc(C)c(S(=O)(=O)N2CCNCC2)c1	inconclusive: 94.4%
Cc1cc(N/N=C/c2ccc3c(c2)OCO3)nc2ccccc12	inconclusive: 77.5%
COc1cc([N+](=O)[O-])ccc1NC(=O)CN1CCOCC1	inconclusive: 89%
CCN(CC)S(=O)(=O)c1ccc(N2CCCC2)c(C(=O)OCC(=O)N2CCCC2)c1	inactive: 99.3%

Structure (SMILES)	binding response (% of control)
COC(=O)c1cc(C)[nH]c2c(C)cc3nc4ccccc4c3c12	inconclusive: 104%
O=C(CCc1ccccc1)Nc1ccc2ccccc2n1	inactive: 91.7%
CC(=O)N(CCCN(C)C)Cc1ccccn1	inconclusive: 90.2%
Cn1cccc1C(=O)NC(=O)COC(=O)c1cc(Cl)ccc1[N+](=O)[O-]	inconclusive: 107%
CC1(OC(=O)C2CCCC2)C(=O)C=C2C=C(c3ccsc3)N(CCCCO)C=C2C1=O (stereo unspecified)	inconclusive: 106%
COc1cccc(/C=N/n2c(N)c(S(=O)(=O)c3cccs3)c3nc4ccccc4nc32)c1	inactive: 101%
CCOC(=O)Cn1cc(/C=C(\C#N)C(=O)N2CCOCC2)c2ccccc21	inconclusive: 78.6%
CCC(C)[C@H](NC(=O)NCCC1=CCCCC1)C(=O)OC (stereo partly specified)	inconclusive: 89.6%
Cc1ccccc1-c1noc(CCC(=O)NCc2ccco2)n1	inconclusive: 138%
CC(NC(=O)Cc1cccs1)C(c1cccs1)N1CCOCC1 (stereo unspecified)	active: 44.9%
CNS(=O)(=O)c1ccc(NS(=O)(=O)c2ccccc2F)cc1	inconclusive: 88.6%
Cc1cc(C)c2c(CN3CCOCC3)cc(=O)oc2c1C	inconclusive: 102%
CCCCCOc1ccc(C(=O)NCCC(=O)NCCCC(=O)OCC)cc1	inconclusive: 104%
CCN(CC)C(=O)CN1CCN(c2ncccn2)CC1	inactive: 122%
CC(C)CNC(=O)Cn1c(=O)c2c(ncn2CC(C)C)n(Cc2ccccc2)c1=O	inactive: 98.4%
COc1cc(/C=C(\C#N)c2nc3ccccc3o2)ccc1O	inconclusive: 953%
Cc1onc(-c2ccc(Cl)cc2)c1-c1ccnc(SCC(=O)Nc2cc(Cl)cc(Cl)c2)n1	inconclusive: 103%
CCCc1nc(SCC(=O)Nc2nnc(SCC)s2)c2c(=O)n(C)c(=O)n(C)c2n1	active: 43.9%
O=C(COC(=O)C1CC1)NC(=O)NCc1ccccc1	inconclusive: 100%
COC(=O)c1cccc(Nc2nc(-c3cccnc3)nc3ccccc23)c1	inconclusive: 517%
CCN1C(=O)S/C(=C/c2ccc(Oc3ccc([N+](=O)[O-])cn3)c(OC)c2)C1=O	inconclusive: 120%
O=C(NC(c1ccccc1)C(Cl)(Cl)Cl)c1ccccc1 (stereo unspecified)	inactive: 96.5%
O=C(O)c1ccc(/C=N/N2CCN(Cc3ccc(Cl)cc3)CC2)cc1	inactive: 125%

Part of the list above, reformatted.
Structure (SMILES) | binding response (% of control)
CC(=O)c1ccc(-n2ccnc2)cc1 | inconclusive: -43.6%
S=C1CCC(c2ccc(Cl)cc2)=NN1c1ccccc1 | inconclusive: 79.8%
COC(=O)C1C(O)=C(C=Nc2cccc3ccccc23)C(=O)CC1(C)C (stereo unspecified) | inconclusive: 111%
COc1cc(/C=N/NC(=O)c2cccc([N+](=O)[O-])c2)ccc1O | inconclusive: 98%
Cc1ccc(C)c(S(=O)(=O)N2CCNCC2)c1 | inconclusive: 94.4%
Cc1cc(N/N=C/c2ccc3c(c2)OCO3)nc2ccccc12 | inconclusive: 77.5%
COc1cc([N+](=O)[O-])ccc1NC(=O)CN1CCOCC1 | inconclusive: 89%
CCN(CC)S(=O)(=O)c1ccc(N2CCCC2)c(C(=O)OCC(=O)N2CCCC2)c1 | inactive: 99.3%
COC(=O)c1cc(C)[nH]c2c(C)cc3nc4ccccc4c3c12 | inconclusive: 104%
O=C(CCc1ccccc1)Nc1ccc2ccccc2n1 | inactive: 91.7%
CC(=O)N(CCCN(C)C)Cc1ccccn1 | inconclusive: 90.2%
Cn1cccc1C(=O)NC(=O)COC(=O)c1cc(Cl)ccc1[N+](=O)[O-] | inconclusive: 107%
CC1(OC(=O)C2CCCC2)C(=O)C=C2C=C(c3ccsc3)N(CCCCO)C=C2C1=O (stereo unspecified) | inconclusive: 106%
COc1cccc(/C=N/n2c(N)c(S(=O)(=O)c3cccs3)c3nc4ccccc4nc32)c1 | inactive: 101%
CCOC(=O)Cn1cc(/C=C(\C#N)C(=O)N2CCOCC2)c2ccccc21 | inconclusive: 78.6%
CCC(C)[C@H](NC(=O)NCCC1=CCCCC1)C(=O)OC (stereo partly specified) | inconclusive: 89.6%
Cc1ccccc1-c1noc(CCC(=O)NCc2ccco2)n1 | inconclusive: 138%
CC(NC(=O)Cc1cccs1)C(c1cccs1)N1CCOCC1 (stereo unspecified) | active: 44.9%
CNS(=O)(=O)c1ccc(NS(=O)(=O)c2ccccc2F)cc1 | inconclusive: 88.6%
Cc1cc(C)c2c(CN3CCOCC3)cc(=O)oc2c1C | inconclusive: 102%
CCCCCOc1ccc(C(=O)NCCC(=O)NCCCC(=O)OCC)cc1 | inconclusive: 104%
CCN(CC)C(=O)CN1CCN(c2ncccn2)CC1 | inactive: 122%
CC(C)CNC(=O)Cn1c(=O)c2c(ncn2CC(C)C)n(Cc2ccccc2)c1=O | inactive: 98.4%
COc1cc(/C=C(\C#N)c2nc3ccccc3o2)ccc1O | inconclusive: 953%
Cc1onc(-c2ccc(Cl)cc2)c1-c1ccnc(SCC(=O)Nc2cc(Cl)cc(Cl)c2)n1 | inconclusive: 103%
CCCc1nc(SCC(=O)Nc2nnc(SCC)s2)c2c(=O)n(C)c(=O)n(C)c2n1 | active: 43.9%
O=C(COC(=O)C1CC1)NC(=O)NCc1ccccc1 | inconclusive: 100%
COC(=O)c1cccc(Nc2nc(-c3cccnc3)nc3ccccc23)c1 | inconclusive: 517%

The list goes on:

Structure (SMILES)	binding response (% of control)
COc1ccc(CNC(=O)CN(Cc2ccccc2)C(=O)c2csnn2)cc1	inactive: 94.3%
O=C(NCc1csc(-c2cccs2)n1)Nc1ccc(F)cc1F	inconclusive: 121%
O=C(Nc1cccnc1Oc1ccc(Cl)cc1)c1cccc2ccccc12	inconclusive: -25.2%
CCOC(=O)N/N=C(/c1ccccc1)C1CCCCC1	inconclusive: 100%
O=C(Cn1nnc(-c2ccccc2F)n1)NCc1ccco1	inactive: 100%
CC(=O)NS(=O)(=O)c1ccc(NC(=O)c2oc3c(Cl)cccc3c2C)cc1	inconclusive: 68.7%
Cc1cccc(N2C(=O)C(O)=C(C(=O)c3cccs3)C2c2ccc(C(C)C)cc2)n1 (stereo unspecified)	inconclusive: 87.9%
COc1ccccc1NS(=O)(=O)c1cccc(C(=O)N/N=C/c2ccc(OCC(=O)O)cc2)c1	inconclusive: 71.2%
O=Cc1cn(-c2ccc(F)cc2)c2ccccc12	inactive: 101%
CSc1cccc(-n2c(C)cc(C(N)=O)c2C)c1	inactive: 101%
CNC(=O)c1ccsc1NC(=O)CN1C(=O)CCC1=O	inconclusive: 113%
O=C(Cn1[nH]c(=O)c2ccccc2c1=O)Nc1ccc2c(c1)CCC2	inactive: 99.7%
CCN1C(=O)C(=O)N(CC(=O)Nc2ccccc2Oc2ccccc2)C1=O	inactive: 101%
COc1ccc(CN2C(=O)CC(C(=O)NCCc3ccc(S(N)(=O)=O)cc3)SC2=Nc2ccccc2)cc1 (stereo unspecified)	inactive: 105%
Cc1ccc(Sc2ccc(/C=C3/C(=O)NN(c4ccccc4)C3=O)o2)cc1	inconclusive: 67.6%
COc1cccc(-c2csc(NC3OC(=O)c4c3ccc(OC)c4OC)n2)c1 (stereo unspecified)	inconclusive: 170%
C=CCN1c2ccccc2[C@]23C[C@@H](C(=O)OC)N(C(=O)c4ccc(Br)cc4)C2=NC(C(=O)OC)=C(C(=O)OC)[C@H]13	inconclusive: 142%
COc1ccccc1Oc1ccccc1[N+](=O)[O-]	inconclusive: 112%
Cc1ccccc1-n1nnnc1SCc1cc(=O)n2ccsc2n1	inconclusive: 111%
COc1ccc(N2C3=C(C(=O)CC(C)(C)C3)C(c3ccccc3OC)C3=C2CC(C)(C)CC3=O)cc1	inconclusive: 66.7%
COc1ccccc1NC(=O)CN(Cc1ccco1)C(=O)c1ccc(=O)[nH]c1	inconclusive: 255%
O=C1NC(c2ccccc2)=CC(c2ccccc2)N1 (stereo unspecified)	inconclusive: 113%
